# Source: the supplement of paper PMC8728848
# The other results are listed elsewhere or left out.
# How the values were obtained:
# Assay in all cases: glycan array binding signal (z-score within array); higher = stronger binding
# Details in all cases: glycan notation: IUPAC condensed, linker removed
# [1] = biological target: Gal(b1-4)GlcNAc(b1-2)[Gal(b1-4)GlcNAc(b1-6)]Man(a1-6)[GlcNAc(b1-4)][Gal(b1-4)GlcNAc(b1-2)Man(a1-3)]Man(b1-4)GlcNAc(b1-4)GlcNAc
# Summary of the method: (§1)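 The binding signal is a Z-score computed within each array and averaged over linkers. Arrays of the same protein sequence at different concentrations or buffers were also averaged together. Data originate from 3228 arrays in the Consortium for Functional Glycomics database, kept only where the protein sequence was available.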
# [2] = biological target: Gal(b1-4)GlcNAc(b1-2)[Gal(b1-4)GlcNAc(b1-6)]Man(a1-6)[GlcNAc(b1-4)][Gal(b1-4)GlcNAc(b1-2)[Gal(b1-4)GlcNAc(b1-4)]Man(a1-3)]Man(b1-4)GlcNAc(b1-4)[Fuc(a1-6)]GlcNAc
# Summary of the method: as §1
# [3] = biological target: Gal(b1-4)GlcNAc(b1-3)Gal(b1-3)GalNAc
# Summary of the method: as §1
# [4] = biological target: Gal(b1-4)GlcNAc(b1-3)Gal(b1-3)GlcNAc
# Summary of the method: as §1
# [5] = biological target: Gal(b1-4)GlcNAc(b1-3)Gal(b1-4)Glc
# Summary of the method: as §1
# [6] = biological target: Gal(b1-4)GlcNAc(b1-3)Gal(b1-4)GlcNAc
# Summary of the method: as §1
# [7] = biological target: Gal(b1-4)GlcNAc(b1-3)Gal(b1-4)GlcNAc(b1-2)Man(a1-3)[Gal(b1-4)GlcNAc(b1-3)Gal(b1-4)GlcNAc(b1-2)Man(a1-6)]Man(b1-4)GlcNAc(b1-4)GlcNAc
# Summary of the method: as §1
# [8] = biological target: Gal(b1-4)GlcNAc(b1-3)Gal(b1-4)GlcNAc(b1-2)Man(a1-3)[Gal(b1-4)GlcNAc(b1-3)Gal(b1-4)GlcNAc(b1-2)Man(a1-6)]Man(b1-4)GlcNAc(b1-4)[Fuc(a1-6)]GlcNAc
# Summary of the method: as §1
# [9] = biological target: Gal(b1-4)GlcNAc(b1-3)Gal(b1-4)GlcNAc(b1-2)[Gal(b1-4)GlcNAc(b1-3)Gal(b1-4)GlcNAc(b1-6)]Man(a1-6)[Gal(b1-4)GlcNAc(b1-3)Gal(b1-4)GlcNAc(b1-2)Man(a1-3)]Man(b1-4)GlcNAc(b1-4)GlcNAc
# Summary of the method: as §1
# [10] = biological target: Gal(b1-4)GlcNAc(b1-3)Gal(b1-4)GlcNAc(b1-2)[Gal(b1-4)GlcNAc(b1-3)Gal(b1-4)GlcNAc(b1-6)]Man(a1-6)[Gal(b1-4)GlcNAc(b1-3)Gal(b1-4)GlcNAc(b1-2)Man(a1-3)]Man(b1-4)GlcNAc(b1-4)[Fuc(a1-6)]GlcNAc
# Summary of the method: as §1
# [11] = biological target: Gal(b1-4)GlcNAc(b1-3)Gal(b1-4)GlcNAc(b1-3)Gal(b1-4)GlcNAc
# Summary of the method: as §1
# [12] = biological target: Gal(b1-4)GlcNAc(b1-3)Gal(b1-4)GlcNAc(b1-3)Gal(b1-4)GlcNAc(b1-2)Man(a1-3)[Gal(b1-4)GlcNAc(b1-3)Gal(b1-4)GlcNAc(b1-3)Gal(b1-4)GlcNAc(b1-2)Man(a1-6)]Man(b1-4)GlcNAc(b1-4)GlcNAc
# Summary of the method: as §1
# [13] = biological target: Gal(b1-4)GlcNAc(b1-3)Gal(b1-4)GlcNAc(b1-3)Gal(b1-4)GlcNAc(b1-2)Man(a1-3)[Gal(b1-4)GlcNAc(b1-3)Gal(b1-4)GlcNAc(b1-3)Gal(b1-4)GlcNAc(b1-2)Man(a1-6)]Man(b1-4)GlcNAc(b1-4)[Fuc(a1-6)]GlcNAc
# Summary of the method: as §1
# [14] = biological target: Gal(b1-4)GlcNAc(b1-3)Gal(b1-4)GlcNAc(b1-3)Gal(b1-4)GlcNAc(b1-2)[Gal(b1-4)GlcNAc(b1-3)Gal(b1-4)GlcNAc(b1-3)Gal(b1-4)GlcNAc(b1-6)]Man(a1-6)[Gal(b1-4)GlcNAc(b1-3)Gal(b1-4)GlcNAc(b1-3)Gal(b1-4)GlcNAc(b1-2)Man(a1-3)]Man(b1-4)GlcNAc(b1-4)[Fuc(a1-6)]GlcNAc
# Summary of the method: as §1
# [15] = biological target: Gal(b1-4)GlcNAc(b1-3)Gal(b1-4)GlcNAc(b1-3)Gal(b1-4)GlcNAc(b1-3)Gal(b1-4)GlcNAc(b1-2)Man(a1-3)[Gal(b1-4)GlcNAc(b1-3)Gal(b1-4)GlcNAc(b1-3)Gal(b1-4)GlcNAc(b1-3)Gal(b1-4)GlcNAc(b1-2)Man(a1-6)]Man(b1-4)GlcNAc(b1-4)GlcNAc
# Summary of the method: as §1
# [16] = biological target: Gal(b1-4)GlcNAc(b1-3)Gal(b1-4)GlcNAc(b1-3)Gal(b1-4)GlcNAc(b1-3)Gal(b1-4)GlcNAc(b1-2)Man(a1-3)[Gal(b1-4)GlcNAc(b1-3)Gal(b1-4)GlcNAc(b1-3)Gal(b1-4)GlcNAc(b1-3)Gal(b1-4)GlcNAc(b1-2)Man(a1-6)]Man(b1-4)GlcNAc(b1-4)[Fuc(a1-6)]GlcNAc
# Summary of the method: as §1
# [17] = biological target: Gal(b1-4)GlcNAc(b1-3)Gal(b1-4)GlcNAc(b1-3)Gal(b1-4)GlcNAc(b1-3)Gal(b1-4)GlcNAc(b1-2)[Gal(b1-4)GlcNAc(b1-3)Gal(b1-4)GlcNAc(b1-3)Gal(b1-4)GlcNAc(b1-3)Gal(b1-4)GlcNAc(b1-6)]Man(a1-6)[Gal(b1-4)GlcNAc(b1-3)Gal(b1-4)GlcNAc(b1-3)Gal(b1-4)GlcNAc(b1-3)Gal(b1-4)GlcNAc(b1-2)Man(a1-3)]Man(b1-4)GlcNAc(b1-4)[Fuc(a1-6)]GlcNAc
# Summary of the method: as §1
# [18] = biological target: Gal(b1-4)GlcNAc(b1-3)Gal(b1-4)GlcNAc(b1-3)Gal(b1-4)GlcNAc(b1-3)Gal(b1-4)GlcNAc(b1-3)Gal(b1-4)GlcNAc(b1-2)Man(a1-3)[Gal(b1-4)GlcNAc(b1-3)Gal(b1-4)GlcNAc(b1-3)Gal(b1-4)GlcNAc(b1-3)Gal(b1-4)GlcNAc(b1-3)Gal(b1-4)GlcNAc(b1-2)Man(a1-6)]Man(b1-4)GlcNAc(b1-4)GlcNAc
# Summary of the method: as §1
# [19] = biological target: Gal(b1-4)GlcNAc(b1-3)Gal(b1-4)GlcNAc(b1-3)Gal(b1-4)GlcNAc(b1-3)Gal(b1-4)GlcNAc(b1-3)Gal(b1-4)GlcNAc(b1-2)Man(a1-3)[Gal(b1-4)GlcNAc(b1-3)Gal(b1-4)GlcNAc(b1-3)Gal(b1-4)GlcNAc(b1-3)Gal(b1-4)GlcNAc(b1-3)Gal(b1-4)GlcNAc(b1-2)Man(a1-6)]Man(b1-4)GlcNAc(b1-4)[Fuc(a1-6)]GlcNAc
# Summary of the method: as §1
# [20] = biological target: Gal(b1-4)GlcNAc(b1-3)Gal(b1-4)GlcNAc(b1-3)Gal(b1-4)GlcNAc(b1-3)Gal(b1-4)GlcNAc(b1-3)Gal(b1-4)GlcNAc(b1-2)[Gal(b1-4)GlcNAc(b1-3)Gal(b1-4)GlcNAc(b1-3)Gal(b1-4)GlcNAc(b1-3)Gal(b1-4)GlcNAc(b1-3)Gal(b1-4)GlcNAc(b1-6)]Man(a1-6)[Gal(b1-4)GlcNAc(b1-3)Gal(b1-4)GlcNAc(b1-3)Gal(b1-4)GlcNAc(b1-3)Gal(b1-4)GlcNAc(b1-3)Gal(b1-4)GlcNAc(b1-2)Man(a1-3)]Man(b1-4)GlcNAc(b1-4)[Fuc(a1-6)]GlcNAc
# Summary of the method: as §1
# [21] = biological target: Gal(b1-4)GlcNAc(b1-3)Gal(b1-4)GlcNAc(b1-3)Gal(b1-4)GlcNAc(b1-3)Gal(b1-4)GlcNAc(b1-3)Gal(b1-4)GlcNAc(b1-3)Gal(b1-4)GlcNAc(b1-2)Man(a1-3)[Gal(b1-4)GlcNAc(b1-3)Gal(b1-4)GlcNAc(b1-3)Gal(b1-4)GlcNAc(b1-3)Gal(b1-4)GlcNAc(b1-3)Gal(b1-4)GlcNAc(b1-3)Gal(b1-4)GlcNAc(b1-2)Man(a1-6)]Man(b1-4)GlcNAc(b1-4)GlcNAc
# Summary of the method: as §1
# [22] = biological target: Gal(b1-4)GlcNAc(b1-3)Gal(b1-4)GlcNAc(b1-3)GalNAc
# Summary of the method: as §1
# [23] = biological target: Gal(b1-4)GlcNAc(b1-3)Gal(b1-4)GlcNAc(b1-3)[Gal(b1-4)GlcNAc(b1-3)Gal(b1-4)GlcNAc(b1-6)]GalNAc
# Summary of the method: as §1
# [24] = biological target: Gal(b1-4)GlcNAc(b1-3)Gal(b1-4)GlcNAc(b1-6)[Gal(b1-3)]GalNAc
# Summary of the method: as §1
# [25] = biological target: Gal(b1-4)GlcNAc(b1-3)Gal(b1-4)[Fuc(a1-3)]GlcNAc(b1-3)Gal(b1-4)[Fuc(a1-3)]GlcNAc
# Summary of the method: as §1
# [26] = biological target: Gal(b1-4)GlcNAc(b1-3)GalNAc
# Summary of the method: as §1
# [27] = biological target: Gal(b1-4)GlcNAc(b1-3)[Fuc(a1-3)GlcNAc(b1-6)]Gal(b1-4)Glc
# Summary of the method: as §1
# [28] = biological target: Gal(b1-4)GlcNAc(b1-3)[Gal(b1-4)GlcNAc(b1-6)]Gal(b1-4)GlcNAc
# Summary of the method: as §1
# [29] = biological target: Gal(b1-4)GlcNAc(b1-3)[GlcNAc(b1-6)]Gal(b1-4)GlcNAc
# Summary of the method: as §1
# [30] = biological target: Gal(b1-4)GlcNAc(b1-6)Gal(b1-4)GlcNAc
# Summary of the method: as §1
# [31] = biological target: Gal(b1-4)GlcNAc(b1-6)GalNAc
# Summary of the method: as §1
# [32] = biological target: Gal(b1-4)GlcNAc(b1-6)[Gal(b1-3)]GalNAc
# Summary of the method: as §1
# [33] = biological target: Gal(b1-4)GlcNAc(b1-6)[Gal(b1-4)GlcNAc(b1-3)]GalNAc
# Summary of the method: as §1
# Gal(b1-4)GlcNAc6P = biological target: Gal(b1-4)GlcNAc6P
# Summary of the method: as §1
# Gal(b1-6)Gal = biological target: Gal(b1-6)Gal
# Summary of the method: as §1
# Gal3S(b1-3)GalNAc = biological target: Gal3S(b1-3)GalNAc
# Summary of the method: as §1
# Gal3S(b1-3)GlcNAc = biological target: Gal3S(b1-3)GlcNAc
# Summary of the method: as §1
# [34] = biological target: Gal3S(b1-3)[Fuc(a1-4)]GlcNAc
# Summary of the method: as §1
binder,measurement,setting,value
Thrombomodulin Lectin (Mus musculus) (protein) LSALAKLQPTGSQCVEHECFALFQGPATFLDASQACQRLQGHLMTVRSSVAADVISLLLSQSSMDLGPWIGLQLPQGCDDPVHLGPLRGFQWVTGDNHTSYSRWARPNDQTAPLCGPLCVTVSTATEAAPGEPAWEEKPCETETQGFLCEFYFTASCRVDPIPVREDTKEEEGAGEPPVSPTPGSPTGPPSARPVLDEPRVPITQNPCPPLKECPPCAAPDLEGGPSVFIFPPKIKDVLMISLSPMVTCVVVDVSEDDPDVQISWFVNNVEVHTAQTQTHREDYNSTLRVVSALPIQHQDWMSGKAFACAVNNRALPSPIEKTISKPRGPVRAPQVYVLPPPAEEMTKKEFSLTCMITGFLPAEIAVDWTSNGRTEQNYKNTATVLDSDGSYFMYSKLRVQKSTWERGSLFACSVVHEGLHNHLTTKTISRSLGK,glycan array binding signal (z-score),[1],-0.306
same,glycan array binding signal (z-score),[2],-0.699
same,glycan array binding signal (z-score),[3],0.228
same,glycan array binding signal (z-score),[4],-1.68
same,glycan array binding signal (z-score),[5],-0.492
same,glycan array binding signal (z-score),[6],-0.416
same,glycan array binding signal (z-score),[7],1.18
same,glycan array binding signal (z-score),[8],1.18
same,glycan array binding signal (z-score),[9],-0.241
same,glycan array binding signal (z-score),[10],-0.263
same,glycan array binding signal (z-score),[11],0.37
same,glycan array binding signal (z-score),[12],0.742
same,glycan array binding signal (z-score),[13],1.73
same,glycan array binding signal (z-score),[14],-0.14
same,glycan array binding signal (z-score),[15],1.01
same,glycan array binding signal (z-score),[16],0.55
same,glycan array binding signal (z-score),[17],1.43
same,glycan array binding signal (z-score),[18],0.506
same,glycan array binding signal (z-score),[19],1.89
same,glycan array binding signal (z-score),[20],0.509
same,glycan array binding signal (z-score),[21],0.318
same,glycan array binding signal (z-score),[22],0.556
same,glycan array binding signal (z-score),[23],0.778
same,glycan array binding signal (z-score),[24],0.282
same,glycan array binding signal (z-score),[25],-0.67
same,glycan array binding signal (z-score),[26],-0.804
same,glycan array binding signal (z-score),[27],-0.306
same,glycan array binding signal (z-score),[28],-0.435
same,glycan array binding signal (z-score),[29],-0.552
same,glycan array binding signal (z-score),[30],0.375
same,glycan array binding signal (z-score),[31],1.21
same,glycan array binding signal (z-score),[32],0.589
same,glycan array binding signal (z-score),[33],-0.371
same,glycan array binding signal (z-score),Gal(b1-4)GlcNAc6P,2.7
same,glycan array binding signal (z-score),Gal(b1-6)Gal,-0.072
same,glycan array binding signal (z-score),Gal3S(b1-3)GalNAc,-0.616
same,glycan array binding signal (z-score),Gal3S(b1-3)GlcNAc,-0.312
same,glycan array binding signal (z-score),[34],-0.592
